Assay results taken from paper PMC5849316.
Results are given in words; binding and its absence hold for the method and conditions named. Binding seen in cells or lysates may run through a third protein.

Amino acid sequences for entries named in this document (tags omitted).
UniProt Q9HB71: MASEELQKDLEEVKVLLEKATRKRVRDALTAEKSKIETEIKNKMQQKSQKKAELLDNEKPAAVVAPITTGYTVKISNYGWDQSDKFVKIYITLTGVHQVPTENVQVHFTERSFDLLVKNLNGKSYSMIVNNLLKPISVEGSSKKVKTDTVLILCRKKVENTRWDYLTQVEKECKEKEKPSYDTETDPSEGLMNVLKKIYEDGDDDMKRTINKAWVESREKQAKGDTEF
UniProt P23297: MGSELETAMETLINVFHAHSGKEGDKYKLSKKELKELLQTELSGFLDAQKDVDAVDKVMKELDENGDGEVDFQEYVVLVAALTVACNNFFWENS

Target: Calcyclin Binding Protein/(Siah-1 interacting protein) (CacyBP/SIP) (human (endogenous in SW480)) (UniProt Q9HB71)
Assay: co-IP; endogenous CacyBP/SIP precipitated with anti-CacyBP/SIP antibody and protein A+G agarose overnight at 4°C from extracts of SW480 cells treated with 5 μmol/L ionomycin for 30 min; western blot for S100A1 and S100A6; normal mouse IgG as control

binding: no binding
Substance: S100A1 (from UniProt P23297 1-94)
